The values that follow come from patent US5166066A (priority 1991, dated 1992).

The chains behind the UniProt entries cited, without tags or fusion partners. Residues count along the entry.
UniProt P18508, 39-466: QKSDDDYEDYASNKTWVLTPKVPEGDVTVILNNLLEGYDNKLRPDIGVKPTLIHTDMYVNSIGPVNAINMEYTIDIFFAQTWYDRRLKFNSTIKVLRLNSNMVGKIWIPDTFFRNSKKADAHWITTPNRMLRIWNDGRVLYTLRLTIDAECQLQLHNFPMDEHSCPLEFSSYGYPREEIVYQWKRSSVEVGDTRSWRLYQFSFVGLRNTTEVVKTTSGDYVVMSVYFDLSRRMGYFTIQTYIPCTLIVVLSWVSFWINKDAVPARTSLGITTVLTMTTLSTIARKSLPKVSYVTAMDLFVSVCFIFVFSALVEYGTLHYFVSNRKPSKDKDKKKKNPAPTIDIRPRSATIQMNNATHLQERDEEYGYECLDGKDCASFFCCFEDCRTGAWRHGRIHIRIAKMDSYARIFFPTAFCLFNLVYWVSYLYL
UniProt P62813, 28-455: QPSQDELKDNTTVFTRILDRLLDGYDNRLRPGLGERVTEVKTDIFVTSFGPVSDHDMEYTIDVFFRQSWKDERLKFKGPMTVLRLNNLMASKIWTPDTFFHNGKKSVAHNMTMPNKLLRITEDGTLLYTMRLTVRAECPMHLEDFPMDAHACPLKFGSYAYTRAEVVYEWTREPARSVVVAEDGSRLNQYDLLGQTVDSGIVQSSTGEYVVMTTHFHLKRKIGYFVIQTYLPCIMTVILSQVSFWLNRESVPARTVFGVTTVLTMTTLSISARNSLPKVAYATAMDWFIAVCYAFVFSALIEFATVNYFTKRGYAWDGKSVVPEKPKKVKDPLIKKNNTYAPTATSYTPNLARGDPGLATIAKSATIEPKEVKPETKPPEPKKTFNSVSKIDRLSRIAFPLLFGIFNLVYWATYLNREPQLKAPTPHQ
UniProt P63138, 26-474: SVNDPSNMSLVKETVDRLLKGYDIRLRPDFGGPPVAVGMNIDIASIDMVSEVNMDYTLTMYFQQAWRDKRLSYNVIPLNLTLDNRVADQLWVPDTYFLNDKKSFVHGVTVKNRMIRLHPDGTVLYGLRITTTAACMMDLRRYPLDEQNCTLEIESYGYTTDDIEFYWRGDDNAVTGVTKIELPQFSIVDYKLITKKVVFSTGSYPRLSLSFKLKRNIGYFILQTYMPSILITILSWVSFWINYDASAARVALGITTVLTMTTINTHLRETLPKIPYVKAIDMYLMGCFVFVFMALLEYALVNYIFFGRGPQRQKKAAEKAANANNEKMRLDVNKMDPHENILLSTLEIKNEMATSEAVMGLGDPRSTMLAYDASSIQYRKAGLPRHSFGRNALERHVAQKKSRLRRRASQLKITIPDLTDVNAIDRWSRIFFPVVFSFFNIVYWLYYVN

The structures appear in SMILES notation.

This assay concerns the target T1, GABAA receptor-Cl- channel complex composed of rat α1, β2, γ2 subunits (Rattus norvegicus, UniProt P18508+P62813+P63138).
T1 construct: expressed in transfected cells
Description: whole-cell patch clamp of GABA-mediated Cl- currents in transfected HEK 293 cells. As to conditions: cell line 2C-1C, HEK 293, holding potential -60 mV. Type of assay: cell-based. Background: Patch clamp records ionic current or voltage across a cell membrane.

`CN1C(=O)CN=C(c2ccccc2)c2cc(Cl)ccc21` [Diazepam]: the “response of cells to drug (Cl- current)” value is “responsive”.
